Data reported in patent publication US9885086B2, “Phospholipase C gamma 2 and resistance associated mutations” (Pharmacyclics LLC, priority 2014, dated 2018).
At least one compound was matched to its structure with a doubt left.

Tested on: DT40 cells stably expressing wild-type or L845F PLCγ2
Assay: Immunoblot of phosphorylated AKT and ERK in PLCγ2 DT40 cells after anti-IgM stimulation
Assay type: cell-based, chicken
Details: L845F cells compared to wild-type, 1 μM Ibrutinib 30 minutes, then 5 μg/ml anti-IgM 15 minutes

SMILES: C=CC(=O)N1CCC[C@@H](n2nc(-c3ccc(Oc4ccccc4)cc3)c3c(N)ncnc32)C1 [ibrutinib]
- inhibition of phosphorylation of ERK and AKT: less inhibition
- inhibition of phosphorylation of ERK and AKT (listed as Ibrutinib): diminished to a lesser degree
